From patent publication US20230365623A1 (FLOREY INSTITUTE OF NEUROSCIENCE AND MENTAL HEALTH, priority 2020, published 2023)

Assay: general procedure: peptide synthesis; Rink Amide MBHA LL resin (A-chain, 0.36 mmol/g); TentaGel R PHB-Thr(tBu) Fmoc preloaded resin (B-chain, glucagon, 0.18 m); HCTU/DIEA

A-chain [Cys7(Pyr), Cys20(Acm)] (IV) gave a step yield (late stage modification step) of 40%.

“Cys6-Cys11 intramolecularly disulfide-bonded insulin A-chain, [Cys7(tBu), Cys20(Acm)] (III)” gave an oxidative folding yield (oxidative folding step) of 28.5%.

[A Cys20(Acm)-B Cys19(Acm)] (V) gave a conjugation yield (conjugation step, calculated from the B-chain) of 49%.
